Measured values from PubChem BioAssay AID588590 (National Center for Advancing Translational Sciences (NCATS), 2011).
Hit rate of the full screen: of about 390,000 compounds, about 4,000 (1%) were called active. Inconclusive means that the source gave no clear call. Such entries were picked first, then a sample of the others. Calls follow the shape of the dose curve; as a rule, active = well fitted inhibition curve with a large enough effect; inconclusive = small, poorly fitted or top-dose-only effect, or another doubt; inactive = no such curve, though single readings can be large or run the other way. Potencies beside an inconclusive call are fits to weak or partial responses and may not hold up.

Sequences of proteins named here, by UniProt entry; tags and fusion partners are left off. A change or cut given only in a name is not applied to a line headed by its entry.
UniProt Q9UNA4: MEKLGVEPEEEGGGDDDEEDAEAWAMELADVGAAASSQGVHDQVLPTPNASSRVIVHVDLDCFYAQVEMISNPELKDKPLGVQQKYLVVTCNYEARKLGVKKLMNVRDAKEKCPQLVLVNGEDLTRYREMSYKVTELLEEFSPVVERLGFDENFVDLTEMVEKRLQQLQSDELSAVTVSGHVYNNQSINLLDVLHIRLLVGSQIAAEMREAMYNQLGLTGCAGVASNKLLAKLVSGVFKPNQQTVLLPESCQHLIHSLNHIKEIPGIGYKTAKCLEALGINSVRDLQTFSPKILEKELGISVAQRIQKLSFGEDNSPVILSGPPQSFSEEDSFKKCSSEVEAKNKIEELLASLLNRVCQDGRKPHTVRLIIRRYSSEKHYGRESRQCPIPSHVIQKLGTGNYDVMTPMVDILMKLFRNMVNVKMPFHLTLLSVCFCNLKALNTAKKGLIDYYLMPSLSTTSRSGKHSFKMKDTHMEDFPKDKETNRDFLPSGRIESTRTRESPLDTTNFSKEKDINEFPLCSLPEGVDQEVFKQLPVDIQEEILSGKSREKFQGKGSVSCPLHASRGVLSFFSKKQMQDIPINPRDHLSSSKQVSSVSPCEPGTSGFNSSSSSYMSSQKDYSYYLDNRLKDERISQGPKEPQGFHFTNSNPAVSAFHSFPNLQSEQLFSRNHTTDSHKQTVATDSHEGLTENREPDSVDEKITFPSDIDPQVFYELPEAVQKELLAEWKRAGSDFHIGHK

biological target: DNA polymerase iota (Homo sapiens) (UniProt Q9UNA4); experiment: qHTS for Inhibitors of Polymerase Iota; settings: Pol iota fluorescent replication assay, 10 min; series mostly up to 115 µM; activity, negative = inhibition: at the top concentration
How it was run: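 Pol iota at 10 nM preincubated 15 min with compounds at room temperature; reaction started with fluorescent substrate, 50 nM final. Fluorescence read kinetically at 0 and 10 min; buffer-only wells as negative control.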
Potency is read from the fitted curve at half-maximal effect.

Row | Structure (SMILES) | Potency | activity, negative = inhibition
1 | Cc1nn(-c2ccccc2)c2c1C(c1ccc(Br)s1)C(C#N)=C(N)O2 (centres undefined) | inconclusive: 8.91 µM [inhibitor, partial curve, poor fit] | –
2 | O=C(CSc1nc(C2CC2)nc2sc3c(c12)CCCC3)NCc1ccco1 | – | inactive: 8.09%
3 | Cc1ccc(C)c(Cn2c(C(=O)O)c(CNCc3cccs3)c3ccccc32)c1 | inconclusive: 56.2 µM [inhibitor, single point] | –
4 | OC(COc1ccc(Cl)cc1)CN1CCCCC1 (centres undefined) | inconclusive: 35.5 µM [inhibitor, full curve, poor fit] | –
5 | Cc1cccc2c(=O)[nH]c3c(-c4nc(-c5ccc(Cl)cc5)cs4)c(O)cn3c12 | inconclusive: 100 µM [inhibitor, single point] | –
6 | COc1cccc(CN2CCN(Cc3cccn3-c3cccnc3)CC2CCO)c1 (centres undefined) | inconclusive: 89.1 µM [inhibitor, single point] | –
7 | O=C(/C=C/c1ccco1)c1cccc([N+](=O)[O-])c1 | active: 50.1 µM | –
8 | [O-][n+]1cccc2cccc(O)c21 | – | inactive: 101%
9 | COc1ccc(OCC(=O)N2CCN(C(=O)Cc3ccccc3)CC2)cc1 | – | inactive: 14.6%
10 | CCCCn1cnc2c(=O)[nH]c(N)nc21 | – | inactive: -1.74%
11 | CC1=C(C(N)=O)C(c2ccc(Cl)cc2)n2nc(CCCO)nc2N1 (centres undefined) | inconclusive: 79.4 µM [inhibitor, single point] | –
12 | COc1ccc(-c2nsc3c(N4CCN(S(=O)(=O)c5ccccc5F)CC4)ncnc23)cc1 | inconclusive: 89.1 µM [inhibitor, partial curve, poor fit] | –
13 | C=CCN(C)CCCCCCOc1ccc(C(=O)c2ccc(Br)cc2)c(F)c1 | – | inactive: 42.8%
14 | Cc1cc(C)cc(OCc2cc(=O)n3c(-c4ccccc4)csc3n2)c1 | inconclusive: 56.2 µM [inhibitor, partial curve, poor fit] | –
15 | c1cncc(-c2nc(-c3ccco3)cs2)c1 | inconclusive: 28.2 µM [inhibitor, single point] | –
16 | CCOc1ccc(NC(=O)CSc2oc(-c3ccccc3)nc2S(=O)(=O)c2ccc(Cl)cc2)cc1 | – | inactive: -4.8%
17 | CCCn1c(SCC(=O)Nc2cc(Cl)ccc2OC)nc(O)cc1=O | – | inactive: 8.65%
18 | Cc1nnc(-c2cnn(C)c2N)n1Cc1ccc(Cl)cc1 | inconclusive: 22.4 µM [inhibitor, single point] | –
19 | O=C(O[C@@H]1OC2COC(=O)c3cc(O)c(O)c(O)c3-c3c(cc(O)c(O)c3O)C(=O)O[C@@H]([C@H]1O)[C@@H]2O)c1cc(O)c(O)c(O)c1 | inconclusive: 0.282 µM [inhibitor, full curve, poor fit] | –
20 | Cc1nnc(NC(=O)C2CCN(S(=O)(=O)c3ccc(F)c(Cl)c3)CC2)o1 | – | inactive: 39.8%
21 | Cc1csc(NC(=O)CSc2nnc(-c3cc(C)on3)o2)n1 | inconclusive: 14.1 µM [inhibitor, partial curve, poor fit] | –
22 | CC1=C(C(=O)Nc2ccccc2)C(c2ccc(O)cc2)N2C(=O)CSC2=N1 (centres undefined) | inconclusive: 39.8 µM [inhibitor, partial curve, poor fit] | –

Row | Structure (SMILES) | Potency | activity, negative = inhibition
23 | O=C(Cc1ccc(OCc2ccccn2)cc1)NO | – | inactive: 55.3%
24 | CCOc1cccc(/C=C2/NC(=O)N(CC(=O)Nc3cccc(C)c3)C2=O)c1O | inconclusive: 89.1 µM [inhibitor, single point] | –
25 | CCOc1ccc(N2C(=O)c3[nH]nc(-c4ccc(OC)cc4)c3C2c2cccs2)cc1 (centres undefined) | inconclusive: 3.98 µM [inhibitor, partial curve, poor fit] | –
26 | COc1ccc(S(=O)(=O)CC(=O)c2cc(C)c(O)c(C)c2)cc1 | inconclusive: 100 µM [inhibitor, single point] | –
27 | N#C/C(=N\Nc1cccc(C(F)(F)F)c1)C(=O)c1ccsc1 | – | inactive: -13.5%
28 | COCCCNC(=O)c1ccc2c3c(onc13)-c1ccccc1C2=O | inconclusive: 10 µM [inhibitor, partial curve, poor fit] | –
29 | O=C(CCS(=O)(=O)c1ccccc1)Nc1nc2cc3c(cc2s1)OCCO3 | – | inactive: 9.61%
30 | N#C/C(=C\c1cc(Cl)cc(Cl)c1O)C(=O)NC1CCCCC1 | inconclusive: 35.5 µM [inhibitor, single point] | –
31 | C[C@H](OC(=O)c1[nH]cnc1C(=O)N1CCN(C(=O)OC(C)(C)C)CC1)c1ccccc1 | inconclusive: 70.8 µM [inhibitor, partial curve] | –
32 | Cc1ccc(C(=O)N2CCN(c3ccccn3)CC2)cc1[N+](=O)[O-] | inconclusive: 100 µM [inhibitor, partial curve, poor fit] | –
33 | COc1ccc(/C=C\C(=O)O[C@@H]2C(O)C(O[C@@H]3OC(C)[C@H](O[C@@H]4OCC(O[C@H]5O[C@H](CO)[C@@H](O)C(O)C5O)C(O)C4O)C(O)C3O)[C@H](OC(=O)[C@]34CCC(C)(C)C[C@@H]3C3=CCC5[C@@]6(C)CC(O)C(O[C@@H]7OC(CO)C(O)[C@H](O)[C@H]7O)[C@@](C)(C(=O)O)C6CC[C@@]5(C)[C@]3(CO)CC4)O[C@H]2C)cc1 (some centres undefined) | inconclusive: 8.91 µM [inhibitor, full curve, poor fit] | –
34 | Cc1ccc(C(=O)Nc2cccc(-c3ccc(N4CCOCC4)nn3)c2)cc1[N+](=O)[O-] | inconclusive: 22.4 µM [inhibitor, full curve] | –
35 | O=c1c2oc3ccccc3c2[nH]c(=S)n1-c1ccccc1 | – | inactive: 4.35%
36 | CC(C)C(=O)Nc1ccc(-c2nnc(-c3ccccc3)o2)cc1 | – | inactive: 10%
37 | O=C(N/N=C\c1ccccn1)C1c2ccccc2Oc2ccccc21 | – | inactive: 71.7%
38 | CN1CCN(CCCNC(=O)Cn2ncc3c4ccccc4n(C)c3c2=O)CC1 | inconclusive: 11.2 µM [inhibitor, partial curve, poor fit] | –
39 | C#CCOCCOCCOCCNc1nc(N2CCN(C(=O)[C@H](CC(N)=O)n3cc(C(N)[C@H](C)CC)nn3)CC2)nc(N2CCN(C(=O)[C@H](CC(N)=O)n3cc(C(N)[C@@H](C)CC)nn3)CC2)n1 (some centres undefined) | inconclusive: 10 µM [inhibitor, partial curve] | –
40 | Cc1cccc(NC(=O)CN2CCCN(S(=O)(=O)c3ccc(Br)s3)CC2)c1 | inconclusive: 3.16 µM [inhibitor, partial curve, poor fit] | –
41 | Cc1sc2ncnc(NCc3cccs3)c2c1C | – | inactive: 17.7%
42 | Cc1nc(-c2ccccc2)sc1C(=O)/C=C/c1ccccc1 | inconclusive: 17.8 µM [inhibitor, partial curve] | –
43 | COc1cccc(NC(=O)C2CCCN(S(=O)(=O)c3cccc4nonc34)C2)c1 (centres undefined) | inconclusive: 89.1 µM [inhibitor, single point] | –
44 | CCN1CCN(c2cc(C)c3cc(NC(=S)NCCCOC)ccc3n2)CC1 | inconclusive: 70.8 µM [inhibitor, single point] | –

Complete entries as entered above. Values in the order: Potency | activity, negative = inhibition
N#C/C(=N\Nc1cccc(C(F)(F)F)c1)C(=O)c1ccsc1 is listed with – | inactive: -13.5%
COc1cccc(NC(=O)C2CCCN(S(=O)(=O)c3cccc4nonc34)C2)c1 (centres undefined) is listed with inconclusive: 89.1 µM [inhibitor, single point] | –

Look-ups from the list.
In Potency, C#CCOCCOCCOCCNc1nc(N2CCN(C(=O)[C@H](CC(N)=O)n3cc(C(N)[C@H](C)CC)nn3)CC2)nc(N2CCN(C(=O)[C@H](CC(N)=O)n3cc(C(N)[C@@H](C)CC)nn3)CC2)n1 (some centres undefined) reads inconclusive: 10 µM [inhibitor, partial curve]
In activity, negative = inhibition, Cc1nnc(NC(=O)C2CCN(S(=O)(=O)c3ccc(F)c(Cl)c3)CC2)o1 reads inactive: 39.8%

The listing continues:

Row | Structure (SMILES) | Potency | activity, negative = inhibition
45 | COc1cc2sc3cc(NCC[C@@H]4CCCN4C)ccc3c(=O)c2cc1OC | inconclusive: 39.8 µM [inhibitor, partial curve, poor fit] | –
46 | Clc1ccc(-c2csc(N/N=C/c3cccnc3)n2)c(Cl)c1 | – | inactive: 111%
47 | N#Cc1ccc(N2CCOCC2)nc1 | inconclusive: 89.1 µM [inhibitor, single point] | –
48 | CC(C)C[C@H]1CN=C(Nc2ccccc2)N1CCC(C)c1ccccc1 (some centres undefined) | inconclusive: 39.8 µM [inhibitor, single point] | –
49 | COC(=O)c1nnn(-c2ccc(Br)cc2)c1C(=O)OC | – | inactive: -4.93%
50 | CCN(CC(=O)Nc1cc(Cl)ccc1C)C(=O)CSCc1c(C)noc1C | inconclusive: 89.1 µM [inhibitor, single point] | –
51 | CCOc1ccc(NC(=O)C2CSC(c3ccncc3)=N2)cc1 (centres undefined) | inconclusive: 0.708 µM [inhibitor, full curve, poor fit] | –
52 | COc1ccc([C@@H]2[C@@H]3C(=O)N(C(C)(C)C)C(=O)[C@@H]3[C@]3(Cc4ccccc4)C(=O)N(c4ccc(OC)cc4)C(=O)N23)cc1 | inconclusive: 89.1 µM [inhibitor, partial curve, poor fit] | –
53 | CC(C)c1ccc(NC(=O)CN2C(=O)NC(Cc3c[nH]c4ccccc34)C2=O)cc1 (centres undefined) | inconclusive: 79.4 µM [inhibitor, single point] | –
54 | N=C1S/C(=C\c2ccco2)C(=O)N1c1ccc2c(c1)OCO2 | – | inactive: 325%
55 | COCC(C)N1CC(O)=C(c2nc(-c3ccc(Cl)cc3)cs2)C1=N (centres undefined) | inconclusive: 70.8 µM [inhibitor, single point] | –
56 | CCc1nc2ccc(C(=O)O)cc2nc1CC | – | inactive: -2.53%
57 | Cc1ccc(NC(=O)CS(=O)CC(=O)Nc2ccccc2-c2ccc(C)o2)cc1 (centres undefined) | inconclusive: 20 µM [inhibitor, single point] | –
58 | COc1ccccc1NC(=O)c1oc2ccccc2c1NC(=O)Cc1ccccc1 | – | inactive: 28.1%
59 | C=C1C(=O)O[C@H]2[C@H]1[C@@H](O)CC(=C)[C@@H]1CC(=O)[C@@H](C)[C@H]21 | inconclusive: 22.4 µM [inhibitor, partial curve, poor fit] | –
60 | CC(=O)Nc1nc(-c2ccc(Cl)cc2)nc(C)c1C(C)=O | inconclusive: 112 µM [inhibitor, partial curve, poor fit] | –
61 | CCOC(=O)[C@@H]1[C@H]2COc3ccc(Br)cc3[C@@H]2N2C(=O)N(c3ccc(Br)cc3)C(=O)[C@]12C | inconclusive: 35.5 µM [inhibitor, single point] | –
62 | COc1ccc(-c2noc(CSc3nnc(C)n3-c3cccc(C)c3)n2)cc1 | – | inactive: 24.2%
63 | Cc1cc(-c2cc(-c3ccccc3)on2)nc(NC2CCCC2)n1 | inconclusive: 25.1 µM [inhibitor, full curve, poor fit] | –
64 | CCOc1ccc(N(CC)C(=O)Cc2c(C(=O)O)n(C)c3ccccc23)cc1 | – | inactive: 90.2%
